Measured values: PubChem BioAssay AID1671190 (National Center for Advancing Translational Sciences (NCATS), 2021)
Values joined by “and” are separate entries in the source; they are usually repeats but may differ in a detail not shown here. Identical values can stand only once. About 6,100 (1.1%) of roughly 580,000 compounds were called active. Inconclusive results, whose numbers are uncertain, are shown with a selection of clear calls. Calls follow the shape of the dose curve; as a rule, active = well fitted inhibition curve with a large enough effect; inconclusive = small, poorly fitted or top-dose-only effect, or another doubt; inactive = no such curve, though single readings can be large or run the other way. Where the call is inconclusive, the potency comes from a doubtful curve fit. More than one record can exist for a structure, and the calls need not agree.

Sequences of proteins named here, by UniProt entry; tags and fusion partners are left off.
UniProt P18054, whole entry, looked up: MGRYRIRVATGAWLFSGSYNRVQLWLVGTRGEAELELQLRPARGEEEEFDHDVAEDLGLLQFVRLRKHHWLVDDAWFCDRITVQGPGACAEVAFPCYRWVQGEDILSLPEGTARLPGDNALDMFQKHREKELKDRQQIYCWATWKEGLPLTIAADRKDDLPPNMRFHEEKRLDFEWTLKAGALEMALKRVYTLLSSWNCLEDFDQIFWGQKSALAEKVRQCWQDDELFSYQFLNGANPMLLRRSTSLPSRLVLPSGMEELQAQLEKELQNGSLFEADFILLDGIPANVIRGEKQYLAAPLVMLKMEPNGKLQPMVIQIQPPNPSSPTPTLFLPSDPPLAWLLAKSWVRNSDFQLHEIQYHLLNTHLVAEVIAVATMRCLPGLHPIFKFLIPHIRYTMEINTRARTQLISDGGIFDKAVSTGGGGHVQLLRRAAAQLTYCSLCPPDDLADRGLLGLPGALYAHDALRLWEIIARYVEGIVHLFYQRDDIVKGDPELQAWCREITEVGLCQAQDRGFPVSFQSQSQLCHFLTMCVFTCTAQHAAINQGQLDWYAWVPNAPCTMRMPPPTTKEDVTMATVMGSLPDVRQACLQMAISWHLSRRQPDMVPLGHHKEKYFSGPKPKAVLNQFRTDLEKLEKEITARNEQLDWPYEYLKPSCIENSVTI

Target: Polyunsaturated fatty acid lipoxygenase ALOX12 (Homo sapiens) (UniProt P18054)
Assay: Primary qHTS assay for inhibitors of human arachidonate 12S-lipoxygenase (ALOX12): Round 2
Conditions: purified 12hLO, xylenol orange hydroperoxide absorbance; series mostly up to 108 µM
Procedure, shortened: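 Purified human 12hLO (150 nM final) in 25 mM Hepes, 0.01% Triton X-100, pH 7.0 was preincubated 15 min at room temperature with compound. Then 40 uM arachidonic acid was added, 30 min. Hydroperoxide was read by Fe-XO absorbance ratio 573/405 nm.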
Potency is read from the fitted curve at half-maximal effect.

| Structure (SMILES) | Potency |
| --- | --- |
| COc1ccc(CN2CCN(C(=O)COc3ccccc3)CC2)c(OC)c1 | inconclusive: 0.631 µM [inhibitor, full curve, poor fit] |
| Cn1c(O)c(C(=O)c2ccccc2)c(=O)n(C)c1=O | inconclusive: 50.1 µM [inhibitor, partial curve, poor fit] |
| N#CC1c2ccccc2-n2nncc2CN1Cc1cc(Cl)cc(Cl)c1 (stereo not drawn) | inconclusive: 35.5 µM [inhibitor, partial curve] |
| O=c1c([N+](=O)[O-])cn(O)cc1[N+](=O)[O-] | inconclusive: 39.8 µM [inhibitor, partial curve] |
| O=C(Cc1ccccc1)N1CCN(Cc2ccc(Cl)cc2)CC1 | inconclusive: 0.316 µM [inhibitor, full curve, poor fit] |
| CN1C(=O)NC(=O)/C(=C/c2ccc([N+](=O)[O-])s2)C1=O | inconclusive: 112 µM [inhibitor, single point] |
| O=C(NC[C@H]1C[C@@H]2CCN1C[C@@H]2CN1CCOCC1)c1ccccc1 | inactive |
| CCOC(=O)c1c(C)n(CC(O)CN2CCOCC2)c2cc(Br)c(OC)cc12 (stereo not drawn) | inconclusive: 39.8 µM [inhibitor, partial curve, poor fit] |
| CC1=C(O)C(=O)C=C2C1=CC=C1[C@@]2(C)CC[C@@]2(C)[C@@H]3C[C@](C)(C(=O)O)CC[C@]3(C)CC[C@]12C | inactive and active: 2.43 µM |
| CC(C)c1ccc(-n2c(O)c(/C=N/N3CCOCC3)c(=O)[nH]c2=S)cc1 | inconclusive: 39.8 µM [inhibitor, partial curve, poor fit] |
| CCN1CCN(Cc2cccnc2)CC1 | inconclusive: 50.1 µM [inhibitor, partial curve, poor fit] |
| COC(=O)[C@@H]1[C@@H](CO)[C@@H]2Cn3c(cccc3=O)[C@H]1N2CC1CCCC1 | inconclusive: 126 µM [inhibitor, single point] |
| O=c1[nH]c(=S)n(C2CC2)c(O)c1/C=N/Nc1ccccc1 | inconclusive: 89.1 µM [inhibitor, partial curve, poor fit] |
| CCCC[N+]12C3C[C@H](C4[C@H](O)[C@]5(C[C@@H]41)c1ccccc1N(C)[C@@H]35)[C@H](CC)[C@H]2O (stereo partly drawn) | inconclusive: 50.1 µM [inhibitor, partial curve, poor fit] |
| Cc1ccc(NC(=O)N2C[C@@H]3C[C@H](C2)c2c(-c4ccccc4F)ccc(=O)n2C3)cc1 | inactive |
| CCOc1ccc(CN(CCc2ccc3c(c2)OCO3)Cc2cccc(C)c2)cc1 | inconclusive: 3.55 µM [inhibitor, full curve, poor fit] |
| C[N+](C)(C)CCc1ccc(O)cc1 | inconclusive: 100 µM [inhibitor, single point] |
| O=C(Cc1cccc(Cl)c1)N1[C@H]2CC[C@@H]1c1cnc(-c3ccccc3)nc1C2 | inconclusive: 50.1 µM [inhibitor, partial curve, poor fit] |
| COc1ccccc1N1CCN(Cc2cccc(OC)c2O)CC1 | inconclusive: 5.62 µM [inhibitor, full curve] |
| Oc1cccc2cccnc12 | active: 9.28 µM |
| Cc1cc(C(C)(C)c2ccc(O)c(C)c2)ccc1O | inconclusive: 3.98 µM [inhibitor, full curve, poor fit] |

| Structure (SMILES) | Potency |
| --- | --- |
| CN(C)C(=O)N1CCC2(CC1)NCc1ccccc1-n1ccnc12 | inactive |
| COc1ccc(-n2c(O)c(/C=C3\C=Nc4ccc(Br)cc43)c(=O)[nH]c2=O)cc1 | inconclusive: 44.7 µM [inhibitor, partial curve, poor fit] |
| COc1ccc(CCNCc2c(OC)ccc3ccccc23)cc1 | inconclusive: 31.6 µM [inhibitor, partial curve, poor fit] |
| O=c1[nH]c(O)c(C=Nc2ccccc2Oc2ccccc2)c(=O)[nH]1 | inconclusive: 56.2 µM [inhibitor, partial curve, poor fit] |
| C[N+]1(C)C2CCC1CC(OC(=O)c1ccccc1)C2 (stereo not drawn) | inconclusive: 79.4 µM [inhibitor, partial curve, poor fit] |
| CC(=O)c1ccc(OC(NC(=O)Cc2ccccc2)C(Cl)(Cl)Cl)cc1 (stereo not drawn) | inconclusive: 44.7 µM [inhibitor, partial curve, poor fit] |
| O=C(O)C1CN(CP(=O)(O)O)CCN1 (stereo not drawn) | inconclusive: 39.8 µM [inhibitor, partial curve, poor fit] |
| CC(C)c1ccc(N=Nc2c(O)[nH]c(=O)[nH]c2=O)cc1 | inconclusive: 126 µM [inhibitor, partial curve, poor fit] |
| COc1ccc(-c2cn(C[C@H]3C[C@@H]4CCN3C[C@@H]4C(=O)NC(C)C)nn2)cc1 | inactive |
| CC(C)C(C)NC(=O)COC(=O)c1cn(C)c2ccccc12 (stereo not drawn) | inconclusive: 126 µM [inhibitor, single point] |
| CC1(O)C[C@]2(C)N(O)C3CCCC[C@@H]3N2O1 (stereo partly drawn) | inconclusive: 44.7 µM [inhibitor, partial curve, poor fit] |
| CCOC(=O)[C@]12Cc3ccccc3[C@H]1N(Cc1ccccc1)C(=O)c1cc(F)c(F)cc12 | inactive |
| c1ccc2nc(N3CCNCC3)ccc2c1 | inconclusive: 44.7 µM [inhibitor, partial curve, poor fit] |
| CCCC1(CC(C)C)C(=O)NC(=S)NC1=O | inconclusive: 50.1 µM [inhibitor, partial curve, poor fit] |
| Cc1ccc(OCC(=O)N2CCN(C3CCC(c4ccccc4)CC3)CC2)cc1 (stereo not drawn) | inconclusive: 8.91 µM [inhibitor, full curve, poor fit] |
| Cc1ccccc1-c1ccc2n(c1=O)C[C@H]1C[C@@H]2CN(Cc2cccs2)C1 | inconclusive: 63.1 µM [inhibitor, full curve, poor fit] |
| CC(Cc1ccccc1)N(C)C (stereo not drawn) | inactive |
| Nc1ccc2cc(Br)ccc2c1 | inconclusive: 2 µM [inhibitor, full curve, poor fit] |
| COC(=O)[C@H]1[C@H](CO)[C@H]2Cn3c(cccc3=O)[C@@H]1N2C(=O)c1ccccn1 | inconclusive: 31.6 µM [inhibitor, partial curve] |
| CN1C(=O)N(C)C(=O)C2(Sc3ccccc3C2=O)C1=O | inconclusive: 31.6 µM [inhibitor, partial curve] |
| O=C1OCCC1NC1=NCCC1 (stereo not drawn) | inconclusive: 35.5 µM [inhibitor, partial curve, poor fit] |

| Structure (SMILES) | Potency |
| --- | --- |
| Cc1ccccc1C(=O)N1Cc2cnnn2-c2ccccc2C1C#N (stereo not drawn) | inconclusive: 31.6 µM [inhibitor, single point] |
| CN(C)c1ccc(/C=C2/C(=O)NC(=O)N(CCc3ccc(F)cc3)C2=O)cc1 | inconclusive: 44.7 µM [inhibitor, partial curve] |
| COc1ccc(-n2c(/C=C/c3ccco3)nc3ccccc3c2=O)cc1 | inconclusive: 39.8 µM [inhibitor, partial curve, poor fit] |
| O=C1NCN(c2ccccc2)C12CCN(CC1COc3ccccc3O1)CC2 (stereo not drawn) | inconclusive: 0.161 µM [inhibitor, full curve, poor fit] |
| CC(=O)OCC12CC(OC(=O)CC(C)C)C(C)=CC1OC1C(O)C(OC(C)=O)C2(C)C12CO2 (stereo not drawn) | inactive |
| O=C(NCC1=C(c2cccc3ccccc23)C[C@@H]2CC[C@H]1N2Cc1ccco1)c1ccncc1 | inconclusive: 25.1 µM [inhibitor, single point] |
| CNCCc1nc(N)n[nH]1 | inconclusive: 10 µM [inhibitor, partial curve, poor fit] |
| CSc1ncc(/C=C2/C(=O)NC(=O)N(c3ccc(C)cc3)C2=O)cn1 | inconclusive: 39.8 µM [inhibitor, partial curve, poor fit] |
| C[C@H](O)[C@H]1CC[C@H]2[C@@H]3CCC4=CC(=O)CC[C@]4(C)[C@H]3CC[C@]12C | inactive |
| O=C1NCN(c2ccccc2)C12CCN(C(CCc1ccccc1)c1nnnn1Cc1ccccc1)CC2 (stereo not drawn) | inconclusive: 50.1 µM [inhibitor, partial curve, poor fit] |
| O=C(Nc1ccc(Br)cc1C(=O)c1ccccc1)c1ccccc1 | inactive |
| CCN1CCN(c2cc(N3CCCC3)c(F)cc2[N+](=O)[O-])CC1 | inconclusive: 126 µM [inhibitor, partial curve, poor fit] |
| CC(=CCCC1=CCC(C2=CC(=O)OC2O)OC1O)CCC1=C(C)CCCC1(C)C (stereo not drawn) | inconclusive: 24.3 µM [inhibitor, partial curve, poor fit] |
| CC(C)(C)c1ccc(O)c(N=Cc2c(O)ccc3ccccc23)c1 | active: 7.94 µM |
| Cc1cc(OCC(=O)OC(C)(C)C)c2c3c(c(=O)oc2c1)CCC3 | inactive |
| COC(=O)C1=C(c2cc3ccccc3s2)C[C@@H]2CC[C@H]1N2C(=O)N1CCC(C)CC1 | inactive |
| O=c1[nH]c(=O)n(-c2ccccc2)c(O)c1N=Nc1ccc(Br)cc1 | inconclusive: 89.1 µM [inhibitor, partial curve, poor fit] |
| Cc1nn(C)c2ncnc(NCCc3c[nH]c(=O)[nH]c3=O)c12 | inactive |
| O=C(Nc1nccs1)[C@H]1CN2CCC1C[C@@H]2Cn1cc(CCO)nn1 (stereo partly drawn) | inconclusive: 35.5 µM [inhibitor, full curve] |
| COc1ccc(-c2ccc3c(c2)CN(C(=O)C(C)(C)C)Cc2cnnn2-3)cc1 | inconclusive: 39.8 µM [inhibitor, partial curve] |
| O=C(N/N=C/c1c(O)n(Cc2ccc(F)cc2)c(=O)[nH]c1=O)c1ccccc1O | inconclusive: 44.7 µM [inhibitor, partial curve, poor fit] |
